Source: patent US20100278787A1, “CARDIOMYOCYTE-LIKE CELL CLUSTERS DERIVED FROM HBS CELLS” (Cellartis AB, priority 2007, published 2010)
Entries after “also recorded” stand apart in the source; their conditions may differ.

Test system: CMLC clusters
Test: Transmembrane action potential (TAP) microelectrode recordings in beating CMLC
Conditions: E-4031, FIGS. 22 and 23

Cc1cccc(CCN2CCC(C(=O)c3ccc(NS(C)(=O)=O)cc3)CC2)n1 [E-4031]
Proarrhythmic potential: effect of IKr block on APs: APD prolongation, triangulation, and EADs; also recorded: prolonged APD in all cases and clear signs of triangulation; also recorded: triangularization as an effect of the drug, triggered activity, and in some cases EADs were detected
